The record followed here is PubChem BioAssay AID1347423 (Functional Genomics Laboratory (NCATS/FGL), 2020).

The campaign covered roughly 52,000 sequences. About 210 (0.4%) were called active.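 The calls were made as follows: active = gene whose silencing raises cell survival under the drug, median off-target-corrected z-score across its silencing RNAs 2 or more; inactive = the rest.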 The list shows a part of the results.

A short description of this test: Resistance to Poly (ADP-Ribose) Polymerase inhibitor: Gene Identification via Genome-wide siRNA Screen. To be noted: mouse BRCA2 R2336H ES cells, olaparib, CellTiter-Glo viability; stronger effect = higher value. The method in brief: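 Mouse BRCA2 R2336H ES cells were reverse-transfected with siRNA (20 nM final), treated at 48 h with 500 nM olaparib, and read by CellTiter-Glo after 72 h. Scores: MAD-based z per siRNA, median per gene, seed off-target correction.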
A general note: ATP-based viability assays read luminescence as a measure of living cells.
With GGUCUAUCAGAUCAUCAAATT against Pde8a, the z-score was inactive: 1.84.
With GCCGGUUCAACAUCUAAUATT against Fgl2 the figure was inactive: -0.256.
For CCUAUUUUUCUACUAACUGTT against Pkp2, the z-score is inactive: 2.01.
Regarding “GCCUUUCUUCUAUUCACUATT against 2210008A03Rik”, the z-score is inactive: -0.802.
Consider GCUAGCAGACCUAAACAAGTT against Scap, for which the z-score is inactive: -0.141.
On to GGAGGAGCUUUACACGGUUTT against Ap1gbp1, for which the z-score is inactive: -2.1.
Consider GGCCAUCAGAGAAAAGAUATT against Akr1d1, for which the z-score was inactive: 0.621.
GCCAAAUUGUCCCGGGCAUTT against Usp39: the z-score is inactive: -2.65.
Then GGAAAGACUUUGAAACUUUTT against Dach2, with inactive: -0.278.
For “GCGUGAGAGAACAACAGACTT against 5830415L20Rik”, the z-score was inactive: 0.215.
In the case of GCAGGUGGUUGUUUCUUAGTT against Slco2a1, the z-score is inactive: 0.184.
Take CCACAGUGGAUUGAUUGUATT against Rnh2: the z-score is inactive: -0.246.
In the case of GGUGCUAAGGAGAAGAAGCTT against Plagl2, the z-score is inactive: 1.37.
Take GGAAAAAAAAAACUGUCUGTT against Pitpnm2: the z-score is inactive: 0.263.
Then GGGACGUAAAUCAAAUGAATT against P2ry12, with inactive: 0.644; and GGCUGAAGCAGUUUCAUUUTT against Car5a, with inactive: -1.72.
Then GGAUCUAUAAGGACUACAUTT against Bmp7, with inactive: -0.68.
With CCAUCCACAGCAGUCCCAATT against Olfr530 the figure was inactive: -1.44.
In the case of GGAAUUCGAGAAGUAACUATT against Dbt, the z-score is inactive: -0.289.
Consider GGCGGUUCAAUAUUAAGCUTT against Wbscr14, for which the z-score is inactive: 2.05.
As to GGGAUUCCCAUCAUUGUGGTT against Gmpr, the z-score was inactive: -0.678.
For the sequence CGUGUGCCACUAAUUGGCUTT against Urod, the z-score was inactive: 1.14.
As for GGCUUGACAACCUCAUGUCTT against Rnf41, the z-score is inactive: -0.509.
With GGACACAUGGAAGAGGAUUTT against Rnf139 the figure was inactive: 1.61.
In the case of “CGUGAAUCCUAACAUGAGATT against 1810029G24Rik”, the z-score is inactive: 0.398.
Consider GGCAAAAUAAAGGAUAGGATT against Prpf4b, for which the z-score was inactive: -0.432.
Take “GGCUUUGGCAUGAUUGGCCTT against 1110039B18Rik”: the z-score is inactive: -0.728.
As for CGAUGUGACUAUUUGUUGATT against Snx11, the z-score was inactive: 0.316.
With CCUAAACCUUUAAAUCAGUTT against Gsdm1, the z-score is inactive: 1.39.
With GGACGACAGGAACUGGCAATT against Fbxo9 the figure was inactive: -2.21; with GGUUUUGCACAGCAUUGGUTT against Efna1, inactive: -1.31; with “GCAUACUUGUUUUAGCUAATT against 1110057H19Rik”, inactive: 0.425.
Turning to GGGUGAUGACGCAAUAUGCTT against Kcnma1, the z-score is inactive: 0.754.
In the case of “AGACCACAGUUAGCAGUGGTT against 6030457N17Rik”, the z-score was inactive: 1.31.
Turning to GGAGUUCGACAUUAGCGGATT against Ehf, the z-score is inactive: 0.231.
With “GGAUUCAUAACAAAACGAGTT against 2810417M05Rik” the figure was inactive: 0.672.
As for GCCAAUAUGCUUAAUUAGATT against Il7, the z-score is inactive: 2.05.
Consider “GCAAGCCAACGUGUCGGAATT against 1500019O16Rik”, for which the z-score was inactive: 1.6.
Consider GGAAAUGAGUAGUAGUAGUTT against Svp2, for which the z-score is inactive: 0.0822.
With GGAAAUCUGAUGUGGAAAGTT against Crsp2 the figure was inactive: -0.889.
For GGCACAAAGCGUAUACUGATT against Ugt2a2, the z-score was inactive: 0.631.
With GCCCAACUGCUACCUGUUUTT against Mansc1 the figure was inactive: -1.24; with GGAAGAUUUGGAAAAUGGATT against Zcsl2, inactive: -1.47.
On to GCCUCAACAUGGAAUGUCGTT against Ppard, for which the z-score was inactive: -1.73.
GGAUACAGCAGUACAAAUGTT against Ces2: the z-score is inactive: -0.472.
Regarding GCCCAUGACCAGUUCAAGUTT against Actn4, the z-score is inactive: 0.000166.
For the sequence GCAUGCAGUCAAGUCAACGTT against Pnoc, the z-score was inactive: 0.292.
For CGUGAUCGGGUACUGAUGUTT against Bscl2, the z-score was inactive: -1.18.
For the sequence “CCAAAUUAACAGGGCUUUGTT against 9630046K23Rik”, the z-score is inactive: -0.667.
Then GCGAUUUAUUGCCAAGCCCTT against Lass5, with inactive: 0.676; and GGACAUUAGGGAAGUGCCUTT against Olfr281, with inactive: -1.16; and “GGAGAAAUUCUAUGGUAUUTT against 5031434C07Rik”, with inactive: 0.537.
With CGUUGAUCCUUUUCAACAUTT against Olfr881 the figure was inactive: 0.935; with GGACUCUGAAGAGGAAAAGTT against Aprin, inactive: -2.99.
With GGUGUUUCAGAGGCCAAACTT against Stfa1, the z-score was inactive: 1.01.
As for GCCAUCACAAGUGAGUUCATT against Olfr951, the z-score was inactive: -1.27.
With CCAUACAUUGGAUCAAAGCTT against Rae1, the z-score was inactive: 1.13.
With GGUUUUCAAUUUUACACACTT against Dtnbp1, the z-score was inactive: 0.232.
Then “GCGGCAAUAUAAGCUACGUTT against 1600015H20Rik”, with inactive: 0.429.
In the case of CUUUUCAAGCAGGAGAGUUTT against Mterf, the z-score was inactive: -0.52.
Then GGUUGCACUACUAAGUGUCTT against Rdhe2, with inactive: 0.388; and CCUGCAUCGUACGCUACUUTT against Rnf110, with inactive: 1.09.
For GAACAAGGAGAAAUUCUUGTT against Ms4a4c, the z-score is inactive: 1.38.
Then GGAGAAGAUGAUGUACUGUTT against Bub1b, with inactive: 0.588; and “GGAAGAUGGCACUAUUCUCTT against 4930444A02Rik”, with inactive: -0.025; and GGCACAUUCAACAACAUUUTT against Zfp592, with inactive: 0.739.
Regarding GGUGAACACUCUUUUGGAATT against Rab11fip2, the z-score is inactive: -0.0884.
Take “GGAAGAAGAACCAAAGCCCTT against 1110005A23Rik”: the z-score was inactive: -0.851.
Turning to GGCUCCAUCAAGAAAAGUUTT against Usp21, the z-score is inactive: -0.958.
As for GGCGUGUGCAAGAAAAUCGTT against Cacng3, the z-score was inactive: 0.00466.
Consider “GGAGUUCCAGAAGCUUCUATT against A230074B11Rik”, for which the z-score is inactive: -1.3.
Take CGCUCAAACCAAAGUUCCUTT against Lin28b: the z-score was inactive: 0.427.
For the sequence GGAGAUGGACUCACUGAUGTT against Zfp31, the z-score is inactive: 2.
On to GCUGAGUCCAUGUCUGUUGTT against Coro2a, for which the z-score was inactive: 0.0688.
On to CCAGAUGCUCGAUUCAGUGTT against Crim1, for which the z-score was inactive: -0.403.
For “GCCUGUGUAUUCUCGCUAUTT against 2810468K17Rik”, the z-score was inactive: 1.63.
For GCGAUAUGCAGAGAAGCGGTT against Prpf8, the z-score was inactive: -2.54.
As for “GGUCAUACAUUUGUCAUCATT against E130319B15Rik”, the z-score is inactive: -1.72.
As for CGCAAUUUUGAACAUGUGUTT against Kctd7, the z-score was inactive: -0.28.
With GGAUGACCAGAACUUCAGUTT against AI894139 the figure was inactive: 0.902; with GGGACUUUGAGAAAAUCUUTT against Scgn, inactive: -1.33; with GGUGGUUACCAUAGCUGGUTT against Arid2, inactive: -1.52.
On to GGCUACUGGGCUUGUUGAATT against Cyp2d22, for which the z-score is inactive: -0.678.
Turning to GCAUUUCGUACAGCAGAAATT against Pip5k2c, the z-score is inactive: -0.0557.
For the sequence “CGAGGAGAAUUUGUAAUGATT against 4930469P12Rik”, the z-score was inactive: -0.364.
Take GGAAGAGAGAGAGCUUAUUTT against Abca6: the z-score is inactive: 0.368.
In the case of CCUUUGAUCAAUUCUGAGUTT against Glb1, the z-score is inactive: 1.13.
With “GGAAUCUUCUGAAUUGCCUTT against 2510004L20Rik” the figure was inactive: 0.364; with GGAAGUUACUGUCGAGUACTT against Olfr115, inactive: -1.27.
Consider GGAAUCUGGGCAAAUCUGGTT against Kcnab2, for which the z-score was inactive: -0.911.
On to GCUAAUCCGGGCAAAAUCGTT against Gbp4, for which the z-score is inactive: -1.61.
Regarding GGGACCUUAGAAGAUUGGGTT against Sart3, the z-score is inactive: 1.34.
Turning to GCCUCAGAAAAACAUCUAUTT against BC008103, the z-score is inactive: 2.16.
With GGAAUCCUGCCAUGAUGCATT against Ubqln2 the figure was inactive: -2.34; with GGAGAUUGGAUCCCGAAACTT against Pxn, inactive: 0.471; with GGGUUUGCACUAGUUUAUUTT against Rap1a, inactive: 0.992.
For the sequence GGAAAAGAUUGGUGAAGGUTT against Gjb5, the z-score was inactive: -0.272.
Take “CCCAGCUCUUAUGUUUACCTT against 1810038H16Rik”: the z-score is inactive: 1.36.
With GGAUCUGGAUUAGAUAGAUTT against Wnt3 the figure was inactive: -0.798.
For the sequence CCAUACUGAACGCGCUUCUTT against Klhl5, the z-score is inactive: 0.297.
In the case of “UUCCAGAAAAGAAGUGCACTT against 9230102D03Rik”, the z-score was inactive: 0.398.
For the sequence GUAGUAACUCCUACAUUGATT against Olfr133, the z-score is inactive: 0.535.
As for GCAUGAGGCUUUAUUUGACTT against Wwp2, the z-score is inactive: 0.482.
Then GGUACAAUGGCACUGUCACTT against Chrna5, with inactive: 1.8; and GGUCAAAGUCAAAGUUUUGTT against Aim1, with inactive: -0.0621.
